PubChem BioAssay AID493246, Drosophila RNAi Screening Center | 2011
The screen tested about 21,000 reagents; this is a random part of those with a known target gene and a result. Of all reagents, 429 (2%) got an active call. 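Values are raw and not normalised between plates; calls rest on per-plate z-scores that were not deposited.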 The record does not give: the amount of reagent, the time to read-out.

- Assay: 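Genes fly cells need to grow and stay alive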 (primary screen)
- System: Drosophila Kc and S2R+ cells
- Knock-down reagent: long dsRNA against Drosophila genes
- Measured: 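Raw, unnormalised count of remaining cells in each well; per-plate z-scores of cell number underlie the calls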
- Reading the numbers: Kc cell number and S2R+ cell number: higher = more cells remaining
- Active means: 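Counted as a hit if cell number falls by a z-score of at least 3 within its plate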

gene	DRSC id	Kc cell number, rep 1	Kc cell number, rep 2	S2R+ cell number, rep 1	S2R+ cell number, rep 2	call
Mal-B1 (GeneID 34597)	DRSC02416	1.66e6	1.64e6	1.42e6	1.70e6	inactive
CG12702 (GeneID 32993)	DRSC19487	1.55e6	1.61e6	9.93e5	1.14e6	inactive
CG1138 (GeneID 40805)	DRSC12530	1.45e6	1.56e6	1.33e6	1.46e6	inactive
CG18746 (GeneID 59142)	DRSC15383	1.65e6	1.93e6	1.27e6	1.39e6	inactive
P5CDh1 (GeneID 40434)	DRSC11801	1.72e6	1.80e6	1.46e6	1.47e6	inactive
betaNACtes3 (GeneID 326224)	DRSC20183	1.50e6	1.50e6	1.03e6	1.09e6	inactive
CG30154 (GeneID 246487)	DRSC05889	5.25e5		7.60e5		inactive
hale (GeneID 40183)	DRSC10882	1.47e6	1.53e6	1.38e6	1.44e6	inactive
CG3106 (GeneID 31909)	DRSC18279	6.08e5		9.07e5		inactive
CG8701 (GeneID 35812)	DRSC07237	1.29e6	1.37e6	1.13e6	1.18e6	inactive
Nrx-1 (GeneID 42646)	DRSC16184	1.47e6	1.60e6	1.12e6	1.16e6	inactive
Spn75F (GeneID 317912)	DRSC09589	1.47e6	1.50e6	1.09e6	1.26e6	inactive
CG12104 (GeneID 38187)	DRSC08254	1.32e6	1.43e6	1.23e6	1.13e6	inactive
Atg1 (GeneID 39454)	DRSC09809	1.43e6	1.50e6	1.39e6	1.34e6	inactive
Atg1 (GeneID 39454)	DRSC09810	1.30e6	1.43e6	1.31e6	1.42e6	inactive
CG7054 (GeneID 42643)	DRSC16185	1.56e6	1.70e6	1.17e6	1.21e6	inactive
CG2200 (GeneID 32258)	DRSC19840	1.50e6	1.44e6	1.09e6	1.07e6	inactive
Def (GeneID 36047)	DRSC07398	1.57e6	1.68e6	1.22e6	1.34e6	inactive
Unc-76 (GeneID 31179)	DRSC18193	1.42e6	1.46e6	1.09e6	1.14e6	inactive
Unc-76 (GeneID 31179)	DRSC18560	1.50e6	1.49e6	1.06e6	1.14e6	inactive
mRpL28 (GeneID 33715)	DRSC02724	1.45e6	1.44e6	9.94e5	1.13e6	inactive
CG8584 (GeneID 35856)	DRSC07217	1.63e6	1.66e6	1.29e6	1.47e6	inactive
sqz (GeneID 42300)	DRSC16980	1.36e6	1.35e6	1.07e6	1.14e6	inactive
Hsc70-5 (GeneID 36583)	DRSC07442	1.45e6	1.53e6	9.14e5	1.05e6	inactive
Vps15 (GeneID 41096)	DRSC16553	1.53e6	1.55e6	1.10e6	1.14e6	inactive
gol (GeneID 38006)	DRSC04689	1.31e6	1.41e6	1.09e6	1.13e6	inactive
CG6978 (GeneID 31413)	DRSC18409	1.67e6	1.75e6	1.16e6	1.28e6	inactive
Sry-delta (GeneID 43572)	DRSC16869	5.67e5		7.16e5		inactive
CG13560 (GeneID 37758)	DRSC04198	1.70e6	1.74e6	1.26e6	1.45e6	inactive
HnRNP-K (GeneID 43862)	DRSC07585	1.59e6	1.60e6	1.12e6	1.15e6	inactive
Cenp-C (GeneID 41014)	DRSC14371	1.33e6	1.38e6	8.29e5	9.43e5	active
CG33500 (GeneID 2768957)	DRSC09115	1.47e6	1.56e6	7.83e5	1.07e6	inactive
lectin-30A (GeneID 53541)	DRSC02560	1.52e6	1.52e6	1.12e6	1.23e6	inactive
Polr2F (GeneID 48312)	DRSC12366	1.63e6	1.74e6	9.12e5	9.87e5	inactive
Rbm13 (GeneID 31818)	DRSC17749	1.62e6	1.64e6	9.39e5	9.57e5	inactive
Fur1 (GeneID 47220)	DRSC13707	1.57e6	1.70e6	1.11e6	1.14e6	inactive
Fur1 (GeneID 47220)	DRSC16676	5.61e5		8.52e5		inactive
wds (GeneID 53428)	DRSC18852	1.51e6	1.56e6	1.03e6	1.16e6	inactive
E5 (GeneID 45396)	DRSC13000	1.50e6	1.59e6	8.86e5	1.01e6	inactive
E5 (GeneID 45396)	DRSC16585	4.79e5	4.81e5	5.94e5	6.78e5	active
CG18404 (GeneID 43603)	DRSC15323	1.49e6	1.48e6	9.92e5	1.08e6	inactive
Sec63 (GeneID 38819)	DRSC11002	1.89e6	1.89e6	1.17e6	1.25e6	inactive
CG33330 (retired record) (GeneID 2768667)	DRSC13053	1.21e6	1.24e6	6.19e5	7.27e5	active
CG33330 (retired record) (GeneID 2768667)	DRSC15495	1.67e6	1.75e6	1.39e6	1.43e6	inactive

Targets above whose gene name starts with S or s (4):
gene	DRSC id	Kc cell number, rep 1	Kc cell number, rep 2	S2R+ cell number, rep 1	S2R+ cell number, rep 2	call
Spn75F (GeneID 317912)	DRSC09589	1.47e6	1.50e6	1.09e6	1.26e6	inactive
sqz (GeneID 42300)	DRSC16980	1.36e6	1.35e6	1.07e6	1.14e6	inactive
Sry-delta (GeneID 43572)	DRSC16869	5.67e5		7.16e5		inactive
Sec63 (GeneID 38819)	DRSC11002	1.89e6	1.89e6	1.17e6	1.25e6	inactive

The results go on.
gene	DRSC id	Kc cell number, rep 1	Kc cell number, rep 2	S2R+ cell number, rep 1	S2R+ cell number, rep 2	call
nebu (GeneID 39458)	DRSC09807	1.25e6	1.30e6	1.28e6	1.22e6	inactive
nebu (GeneID 39458)	DRSC09808	1.62e6	1.57e6	1.36e6	1.47e6	inactive
Eip75B (GeneID 39999)	DRSC11161	1.50e6	1.63e6	7.32e5	8.15e5	inactive
olf413 (GeneID 40453)	DRSC11543	1.61e6	1.67e6	1.12e6	1.26e6	inactive
olf413 (GeneID 40453)	DRSC11679	1.42e6	1.38e6	1.00e6	1.20e6	inactive
olf413 (GeneID 40453)	DRSC11721	1.41e6	1.48e6	1.35e6	1.48e6	inactive
olf413 (GeneID 40453)	DRSC11833	1.40e6	1.56e6	1.31e6	1.42e6	inactive
Art2 (GeneID 33631)	DRSC00627	1.57e6	1.64e6	1.13e6	1.31e6	inactive
scaf (GeneID 35505)	DRSC04849	1.27e6	1.32e6	1.05e6	1.15e6	inactive
CG8891 (GeneID 33718)	DRSC03120	1.61e6	1.56e6	1.18e6	1.35e6	inactive
CG32971 (GeneID 318271)	DRSC01372	1.43e6	1.43e6	8.91e5	1.11e6	inactive
lectin-46Ca (GeneID 53523)	DRSC06612	1.50e6	1.46e6	1.10e6	1.09e6	inactive
DMAP1 (GeneID 37339)	DRSC06044	1.04e6	1.12e6	8.96e5	1.01e6	inactive
CG6813 (GeneID 41396)	DRSC16122	1.33e6	1.44e6	1.33e6	1.38e6	inactive
edin (GeneID 317900)	DRSC09488	1.66e6	1.66e6	1.13e6	1.41e6	inactive
aay (GeneID 39085)	DRSC11320	1.37e6	1.49e6	1.23e6	1.20e6	inactive
Mettl14 (GeneID 34138)	DRSC03073	1.35e6	1.46e6	6.63e5	7.86e5	inactive
Ubr3 (GeneID 31713)	DRSC17987	6.22e5		9.31e5		inactive
Ubr3 (GeneID 31713)	DRSC17997	1.56e6	1.52e6	1.03e6	1.13e6	inactive
ssp (GeneID 39375)	DRSC10252	1.32e6	1.36e6	1.05e6	1.05e6	inactive
Smyd4-2 (GeneID 39414)	DRSC10126	1.72e6	1.72e6	1.25e6	1.32e6	inactive
Osi22 (GeneID 41632)	DRSC16442	1.52e6	1.59e6	1.22e6	1.32e6	inactive
CG32944 (GeneID 40560)	DRSC12138	1.60e6	1.64e6	1.38e6	1.52e6	inactive
CG32944 (GeneID 40560)	DRSC12341	1.74e6	1.76e6	1.40e6	1.51e6	inactive
Cyp6a14 (retired record) (GeneID 8674017)	DRSC07376	1.51e6	1.59e6	1.31e6	1.35e6	inactive
Listericin (GeneID 36183)	DRSC07334	1.73e6	1.77e6	1.11e6	1.31e6	inactive
CG31373 (GeneID 318700)	DRSC16052	1.44e6	1.42e6	1.25e6	1.33e6	inactive
CG3511 (GeneID 37926)	DRSC04382	1.51e6	1.63e6	1.13e6	1.12e6	inactive
Cyp4p2 (GeneID 35946)	DRSC07373	1.06e6	1.01e6	8.39e5	6.89e5	inactive
Cyt-c-d (GeneID 34995)	DRSC03309	1.48e6	1.57e6	1.19e6	1.33e6	inactive
Phf5a (GeneID 33909)	DRSC03261	1.50e6	1.33e6	8.93e5	1.02e6	inactive
